In all, about 340,000 compounds went through this assay and about 170 (0.05%) were called active. The inconclusive results got no clear call from the source; some entries with a clear call stand among them for comparison. Calls come from the whole dose curve; as a rule, active = well fitted inhibition curve with a large enough effect in the signal ratio, with a control signal flat (not every such curve was filed as active); inconclusive = small, poorly fitted or top-dose-only effect, or effect the other way, or a change in a side signal; inactive = flat fitted curve, though single readings scatter; the % refers to the signal ratio. Potencies of inconclusive entries are doubtful fits and often do not repeat.
Assay: qHTS Assay to Find Inhibitors of Chronic Active B-Cell Receptor Signaling;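 for activity change, negative = inhibition: plate controls were basal doxycycline-induced cells for no effect and cells given 10 µM MG132 for full effect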
Conditions: ABC-DLBCL IkBa-CBG/CBR reporter, luminescence ratio (green luciferase fused to IkBa over red control in TMD8 lymphoma cells), 4 h; activity change, negative = inhibition: at 46.1 µM (top of the series)
Procedure, shortened: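 TMD8 human ABC-DLBCL cells with doxycycline-inducible IκBα–green luciferase fusion and unfused red luciferase, in 0.5% FBS medium; compounds up to 46 uM, 4 h at 37C. Green/red luminescence ratio, filter-overlap corrected, fitted to concentration-response curves.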
Potency is the fitted concentration of half-maximal effect.

Structure (SMILES)	activity change, negative = inhibition	Potency
COc1ccc2[nH]c3c(c2c1)CCN1C(=O)N([C@@H](C)C(=O)NCc2ccc(C)cc2)C(=O)[C@]31C	inactive	
CCn1c(SCC(=O)Nc2ccc(NC(C)=O)cc2)nc2c1c(=O)n(C)c(=O)n2C	inconclusive: -7.4%	
c1ccc(Oc2cccc(NC3=NCCC3)c2)cc1	inactive	
O=C(Nc1cccnc1)c1ccc(-c2cc(Cl)ccc2Cl)o1		inconclusive: 35.5 µM [falling, partial curve, poor fit]
O=C1CC(c2cc(Br)ccc2F)c2cc3c(cc2N1)CCC3 (centres undefined)	inactive	
COc1ccc(OCCn2cc(/C(N)=N/O)c3ccccc32)cc1	inconclusive: -13.2%	
Cc1cccc(CCNc2nc3ccc(C)cc3n3cnnc23)c1	inconclusive: 4.38%	
Cc1cc(C(=O)N2CCc3ccccc32)c2ccccc2n1	inconclusive: 0.182%	
FC(F)(F)c1cccc(N/N=C/c2ccccc2)c1	inconclusive: -6.86%	
O=[N+]([O-])c1ccccc1/C=C\C=N\N1CCN(c2ccccc2)CC1		inconclusive: 35.5 µM [falling, single point]
CCOc1cc(CNC(=O)c2sc3ncnc(N(C)C4CCCCC4)c3c2C)ccc1OC	inconclusive: -2.5%	
COc1ccc(OCc2cc(=O)c3ccc4c(c3o2)C=CC(C)(C)O4)cc1OC	inactive	
COc1cccc(C2c3c(oc4ccccc4c3=O)C(=O)N2CCCN2CCOCC2)c1 (centres undefined)	inconclusive: 13.9%	
O=C(NCc1nc2ccccc2[nH]1)C1=C[C@H](C2CC2)C[C@H](OCCCCO)O1	inactive	
CCOC(=O)C1=C(C)NC(=O)NC1c1ccccc1OCc1c(F)cccc1Cl (centres undefined)	inactive	
CC1=CC(C)C(COC(=O)CN2CCCCC2)C(C)C1 (centres undefined)	inconclusive: -16.4%	
CCOC(=O)CSC1=C(C#N)C(c2ccc(C)o2)CC(=O)N1 (centres undefined)	inconclusive: -22.8%	
COCCn1c(SCC(=O)N2CCCc3ccccc32)nc2cccnc21	inconclusive: 25.2%	
O=c1[nH]ncc(N/N=C\c2ccc(O)cc2O)c1Cl	inconclusive: 12.9%	
CCCCn1c(SCC(=O)Nc2nc(C)cs2)nnc1-c1cccnc1	inconclusive: 10.6%	
O=C(NNC(=O)c1cccc2ccccc12)c1ccc(-c2ccccc2)cc1	inconclusive: 11.9%	
CCC(Oc1ccc(C)cc1)C(=O)Nc1ccccc1C(=O)N1CCOCC1 (centres undefined)	inactive	
O=S(=O)(Nc1c(S(=O)(=O)c2ccccc2)c2nc3ccccc3nc2n1C1CCCCC1)c1ccccc1		inconclusive: 23.1 µM [falling, single point]
COc1ccc(-c2ccc(=O)n(CC(=O)Nc3ccc(C(=O)NC4CC4)cc3)n2)cc1OC	inconclusive: 0.0329%	
CCCc1cc(-n2cnc3ccccc32)n2c(nc3ccccc32)c1C#N	inconclusive: 10.9%	
Cc1csc(SCC(=O)NCc2ccccc2)n1	inconclusive: 1.09%	
O=S(=O)(Nc1cc(S(=O)(=O)N2CCOCC2)ccc1Cl)c1ccccc1	inactive	

Reprinted at random: two compounds from above
Structure (SMILES)	activity change, negative = inhibition	Potency
Cc1cc(C(=O)N2CCc3ccccc32)c2ccccc2n1	inconclusive: 0.182%	
CCn1c(SCC(=O)Nc2ccc(NC(C)=O)cc2)nc2c1c(=O)n(C)c(=O)n2C	inconclusive: -7.4%	

(list continues)

Structure (SMILES)	activity change, negative = inhibition	Potency
C=CCc1cccc(/C=N/NC(=O)C[n+]2ccccc2)c1O	inactive	
CC1CCCCN1C(=O)COC(=O)C1CCN(S(=O)(=O)c2c(Cl)cccc2Cl)CC1 (centres undefined)	inconclusive: 2.89%	
O=c1cnnc(N/N=C/c2ccccn2)[nH]1	inactive	
CSc1ccc(S(=O)(=O)N2CCC(C(=O)NCC3CCCO3)CC2)cc1 (centres undefined)	inactive	
O=C(O)c1ccc(NS(=O)(=O)c2cccc(C(=O)Nc3ccc([N+](=O)[O-])cc3)c2)cc1	inconclusive: 2.16%	
CN(Cc1cccs1)C(=O)Cn1cnc2cc([N+](=O)[O-])ccc2c1=O	inconclusive: -28.6%	
COC(=O)c1cc2sc(Cl)cc2n1CC(=O)Nc1ccc(OC)c(OC)c1OC	inconclusive: 1.46%	
CCOc1ccc(Sc2cc(C(=O)NC(C)c3ccccc3)c3ccccc3n2)cc1 (centres undefined)	inconclusive: -1.01%	
Cc1ccc(Cl)cc1N1CCN(Cc2nc3c(c(=O)[nH]c(=O)n3C)n2Cc2ccccc2F)CC1	inactive	
NC(=O)c1ccsc1NC(=O)CS(=O)(=O)c1ccc(F)cc1	inactive	
COc1cccc2sc(N(CCCN(C)C)C(=O)COc3ccc(Cl)cc3)nc12	inconclusive: -2.6%	
C=C(C)Cn1c(NCCOC)nc2c1c(=O)[nH]c(=O)n2C		inconclusive: 0.794 µM [rising, full curve]
CCC(CO)Oc1cc(NC(=O)c2ccccc2F)c2ncn(C(C)C)c2c1 (centres undefined)	inactive	
Cc1cc(=O)[nH]c(SCC(=O)Nc2ccc(Br)cc2)c1C#N		inconclusive: 29.1 µM [falling, single point]
O=C(O)Cc1ccc(C(=O)c2ccccc2)s1		inconclusive: 11.6 µM [rising, partial curve]
O=C1/C(=C/c2ccco2)CCC1C1CCCC1 (centres undefined)	inconclusive: -11.1%	
O=C(NCC(c1ccco1)N1CCCC1)c1cn(Cc2ccccc2)nc1-c1ccccc1 (centres undefined)	inconclusive: 0.624%	
Cc1ccc2oc(-c3ccc(NC(=O)c4ccc5c(c4)OCO5)cc3)nc2c1		inconclusive: 0.82 µM [rising, full curve, poor fit]
O=C(CSc1nnc2sc3ccccc3n12)c1ccco1		inconclusive: 20.6 µM [falling, single point]
CCS(=O)CCSC(=N)N (centres undefined)		inconclusive: 32.6 µM [falling, partial curve, poor fit]
CNC(=O)C(=O)NCC1CCCN1S(=O)(=O)c1cccs1 (centres undefined)	inconclusive: 13.7%	
CC(C)(C)c1cc(C(=O)Nc2ccc(F)cc2)n(Cc2ccc(F)cc2)n1	inconclusive: -0.32%	
CN(C)c1ccc(-c2nc3ccccc3c(=O)[nH]2)cc1	inconclusive: 18.9%	
COc1ccc(C2c3ccc4ccccc4c3Oc3ncn(Cc4ccco4)c(=N)c32)cc1OC (centres undefined)		inconclusive: 5.17 µM [falling, partial curve, poor fit]
O=C1NC(=Nc2ccc(Cl)cc2)/C(=C/c2ccco2)S1	inactive	
O=C(CSCc1cccc(Br)c1)N=Nc1c(O)[nH]c2ccccc12	inactive	
CCOc1ccccc1N1CC(C(=O)NNC(=O)c2cc(OC)c(OC)c(OC)c2)CC1=O (centres undefined)	inactive	

— PubChem BioAssay AID493014 (National Center for Advancing Translational Sciences (NCATS), 2011)
